Source: patent publication US10632165B2, “Beneficial effect of Bidens pilosa on fat decrease and muscle increase” (Academia Sinica, priority 2016, dated 2020)
For at least one compound, name, drawing or mass did not settle the structure.

Tested on: PPARγ
Test: PPARγ expression in 3T3-L1 cells (Western blot)
Format: cell-based, mouse
Conditions: inducer plus test substance

**Q.** `CN(CCOc1ccc(CC2SC(=O)NC2=O)cc1)c1ccccn1` (stereo not shown) [Rosiglitazone, rosiglitazone, reference compound] was tested. Which “PPARγ expression up-regulated by the inducer” value did it give?
**A.** The value was “slightly increased this up-regulation”.
